Among the data in patent US4810779A (Enichem Elastomeri S.p.A., priority 1985, dated 1989) are step yield values, retold here.

Some peptides are written in HELM: one residue between dots, names in brackets for other building blocks, links after the first $.

The series in a line: general procedure: Fmoc solid-phase peptide synthesis. Conditions: late stage modification step.

Take “PEPTIDE1{[Glp].L.W.P.R.P.H.V.P.P}$$$$V2.0”: the step yield came out at 70%.

As for “PEPTIDE1{[Glp].L.W.P.R.P.Q.I.P.P}$$$$V2.0”, the step yield result is reported as “higher than 70%”. Where the note is “from decapeptide (III)”, this substance displayed a step yield of 72.7%.
